Consider 60 compounds from PubChem BioAssay AID493014 (National Center for Advancing Translational Sciences (NCATS), 2011).

A short description of this experiment: qHTS Assay to Find Inhibitors of Chronic Active B-Cell Receptor Signaling. As to conditions: ABC-DLBCL IkBa-CBG/CBR reporter, luminescence ratio (green luciferase fused to IkBa over red control in TMD8 lymphoma cells), 4 h. The essentials: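 Concentration-response series (up to 46 uM) were applied to TMD8 dual-reporter cells for 4 h at 37C with doxycycline. Green/red ratio, after filter-overlap correction, defined %Activity; red signal alone was normalised to basal cells and zero luminescence.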
(In qHTS, concentration-response curves come from the screen itself.)

[1] abbreviates: measured here: CBR red luminescence, cell number.
Setting [2] is: measured here: IkBa-CBG green luminescence.

Structures are written as SMILES. This is one part of the list. The main result of the screen is listed elsewhere. These columns were measured beside it and carry no call. Most of these compounds were active or inconclusive in the main read-out, so they are no random draw. The note in brackets gives the kind of curve behind each potency; many fits are weak.

As to `CCC(CC)C(=O)c1c[nH]c(C(=O)OC)c1`, under setting [1], the half-maximal activity concentration (AC50) is 7.94 µM [rising, partial curve].

With `COc1cc(SC)ccc1C(=O)NCCc1c[nH]c2ccccc12`, under setting [1], the AC50 is 10 µM [falling, partial curve]. On the same count and under the same terms, the value for `O=C(NCc1ccco1)c1sc2cc(Cl)ccc2c1Cl` was 1.3 µM [rising, full curve, poor fit]; that for `FC(F)(F)c1cccnc1Oc1ccc(C2=NCCS2)cc1` was 35.5 µM [rising, single point]; that for `COCCNS(=O)(=O)c1cc(OC)c(C)cc1C` was 2.51 µM [rising, partial curve].

Consider `Cc1ccc2cc(COC(=O)c3ccco3)c(=O)[nH]c2c1`, for which the AC50 under setting [1] was 1.64 µM [falling, partial curve, poor fit]. Same read-out and setting: the value for `CC(C)Cn1c(N)c(C(=O)COC(=O)c2ccc3c(c2)OCCO3)c(=O)n(C)c1=O` was 0.58 µM [rising, partial curve, poor fit].

On to `O=C(O)c1cccc(CSc2ncccn2)c1`, for which the AC50 under setting [1] was 29.1 µM [falling, single point]. On the same count and under the same terms, the value for `O=C(COC(=O)c1cc(=O)[nH]c(=O)[nH]1)Nc1cccc(S(=O)(=O)N2CCOCC2)c1` was 6.31 µM [rising, single point]; that for `O=C(O)CCn1cc(/C=C2/NC(=S)N(c3ccccc3)C2=O)c(-c2ccccc2)n1` was 18.4 µM [rising, partial curve, poor fit]; that for `CN(C)c1ccc(S(=O)(=O)NCC(=O)NCCC2=CCCCC2)cc1[N+](=O)[O-]` was 1.03 µM [rising, full curve, poor fit]. Same read-out and setting: with `COc1cc(C(=O)Oc2cccc(/C=N/NC(=O)c3cc(C)[nH]n3)c2)cc(OC)c1OC` the figure was 14.1 µM [falling, partial curve]; with `CCOC(=O)c1sc2nc(N3CCOCC3)c3c(c2c1N)CC(C)(C)N(C)C3`, 0.501 µM [rising, full curve, poor fit]; with `CC(C)c1ccc(/C=C2\SC(N3CCCC3)=NC2=O)cc1`, 20.6 µM [rising, partial curve, poor fit].

Regarding `Cc1cccc(C)c1OC(=O)CSc1nnc(-c2ccccc2O)o1`, under setting [1], the AC50 is 3.26 µM [rising, full curve]. The same measure, in the same setting: the value for `Cc1cccc(NC(=O)CN2CCN(C(=O)c3cnn(Cc4ccccc4)c3)CC2)c1C` was 2.91 µM [rising, partial curve, poor fit]; that for `COc1ccc(C(=O)c2cn[nH]c2-c2cc(C)ccc2O)cc1` was 3.98 µM [falling, single point]. Regarding `CCOC(=O)c1ccc(N2NC(=O)/C(=C/c3ccc(OC(=O)c4ccco4)c(OC)c3)C2=O)cc1`, the AC50 under setting [1] is 2.59 µM [falling, partial curve, poor fit]. As for `O=C1c2oc3ccc(Cl)cc3c(=O)c2C(c2ccccn2)N1CCCN1CCOCC1` (stereo not given), the half-maximal activity concentration (AC50) under setting [1] is 32.6 µM [rising, single point].

Consider `CCN(Cc1nc2cc(Cl)ccc2c(=O)[nH]1)C(=O)c1cccc(OCc2c(C)noc2C)c1`, for which, under setting [1], the AC50 was 23.1 µM [falling, single point].

`COC(=O)c1cc(NC(=O)CN(c2ccc(OC)cc2)S(=O)(=O)c2ccc(F)cc2)ccc1Cl`: the AC50 is 5.8 µM [falling, full curve] under setting [1] and 32.6 µM [rising, partial curve, poor fit] under setting [2].

Turning to `CCn1c(O)c(C=NCc2cccs2)c(=O)n(CC)c1=S`, under setting [1], the AC50 was 4.11 µM [falling, full curve, poor fit].

On to `CCN(CC)S(=O)(=O)c1ccc(C)c(NC(=O)CSc2ncc(C(F)(F)F)cc2Cl)c1`, for which the concentration at half-maximal activity (AC50) under setting [1] is 29.1 µM [rising, single point]. `Nc1ccc(C(=O)N/N=C/c2cccc(Oc3ccccc3)c2)cc1`: the half-maximal activity concentration (AC50) under setting [1] was 20 µM [falling, partial curve, poor fit]. As for `CC(=O)N1CCN=C1SCc1cccc(C)c1`, under setting [1], the AC50 was 35.5 µM [rising, single point].

Regarding `CS(=O)(=O)c1ccc(Cl)c(NC(=O)c2cccc(-n3cnnn3)c2)c1`, the half-maximal activity concentration (AC50) under setting [1] is 0.0411 µM [rising, partial curve, poor fit].

With `COc1ccccc1NC(=O)Nc1cc(F)ccc1F`, the concentration at half-maximal activity (AC50) under setting [1] was 1 µM [rising, full curve, poor fit]. In the case of `Cc1[nH]c2ccccc2c1C(=O)C(=O)N(C)C1CCCCC1`, under setting [1], the half-maximal activity concentration (AC50) is 10 µM [rising, partial curve, poor fit]. In the case of `O=C(/C=C/Nc1ccccc1O)c1ccco1`, the AC50 under setting [1] was 11.2 µM [falling, partial curve].

For the compound `O=C(NCc1ccccc1)C1CCCN1C(=O)Nc1ccccc1[N+](=O)[O-]` (stereo not given), the AC50 under setting [1] was 35.5 µM [rising, single point].

Regarding `CCCN(CCC)c1nc(-c2ccccn2)nc2ccccc12`, under setting [1], the AC50 is 35.5 µM [falling, single point]. As for `Cc1nc2cc(NC(=O)NCc3ccco3)ccc2o1`, the AC50 under setting [1] was 18.4 µM [falling, single point]. Same read-out and setting: the value for `CN(CC(=O)Nc1c(Cl)cccc1Cl)C(=O)c1ccc(-n2cncn2)c([N+](=O)[O-])c1` was 14.6 µM [falling, partial curve, poor fit]. On the same count and under the same terms, the value for `Cc1ccc(S(=O)(=O)NC(CC(C)C)C(=O)N2CCN(C/C=C/c3ccccc3)CC2)cc1` (stereo not given) was 18.4 µM [falling, single point]. Take `O=C(CCn1nc(-c2ccccc2)c2ccccc2c1=O)N1CCN(c2ccccc2)CC1`: the half-maximal activity concentration (AC50) under setting [1] is 20.6 µM [falling, single point]. On the same count and under the same terms, with `CCCCNC(=O)Nc1nc2ccccc2s1` the figure was 10 µM [falling, partial curve, poor fit].

On to `COc1ccc(-c2noc(CCC(=O)O)n2)cc1`, for which the half-maximal activity concentration (AC50) by setting is: under setting [1], 4.11 µM [falling, partial curve]; under setting [2], 1.03 µM [rising, full curve, poor fit]. In the case of `CCN1/C(=C/C(=S)Nc2ccccc2)Sc2ccccc21`, the concentration at half-maximal activity (AC50) under setting [1] is 20 µM [falling, partial curve, poor fit]. The same measure, in the same setting: the value for `O=S(=O)(c1ccc(SCc2cccc(Cl)c2)nc1)N1CCCC1` was 6.51 µM [rising, partial curve, poor fit]. For the compound `Cc1cc(C)c2cc(CN(CCO)C(=O)Nc3ccc(F)cc3)c(=O)[nH]c2c1`, the AC50 under setting [1] was 18.4 µM [falling, single point].

`O=C(N/N=C/C1CC=CCC1)c1ccc(O)cc1O` (stereo not given): the AC50 under setting [1] is 7.31 µM [falling, partial curve]. Same read-out and setting: the value for `Cc1ccc2nc(N3C(=O)C(O)=C(C(=O)c4ccc(C)o4)C3c3ccc(O)cc3)sc2c1` (stereo not given) was 0.58 µM [falling, full curve]; that for `COc1ccc2nc(SCC(=O)Nc3ccccc3C#N)[nH]c2c1` was 35.5 µM [rising, single point]. The same measure, in the same setting: the value for `COC(=O)c1c(-c2ccc(OC)cc2)sc2cc3c(cc12)OCO3` was 18.4 µM [rising, partial curve]. In the case of `CS(=O)(=O)N(CC(=O)NCCSCc1c(F)cccc1Cl)c1ccc2c(c1)OCO2`, the concentration at half-maximal activity (AC50) runs as follows: under setting [1], 3.26 µM [rising, full curve, poor fit]; under setting [2], 29.1 µM [falling, partial curve, poor fit]. As to `Cc1cc(NS(=O)(=O)c2ccc(NC(=O)Nc3cccc(C(F)(F)F)c3)cc2)no1`, under setting [1], the AC50 was 2.24 µM [falling, partial curve, poor fit]. In the case of `COc1cc(OC)cc(C(=O)N/N=C(\C)CC(=O)Nc2ccccn2)c1`, the AC50 by setting is: under setting [1], 0.562 µM [falling, full curve, poor fit]; under setting [2], 12.6 µM [falling, partial curve]. For `CCOc1ccc(-n2c(SCc3nc(-c4ccc(C)cc4)no3)nnc2-c2ccncc2)cc1`, under setting [1], the concentration at half-maximal activity (AC50) is 29.1 µM [falling, single point]. Same read-out and setting: the value for `COc1cccc(OC)c1/C=C/C(=O)NC1CCCCC1` was 7.94 µM [falling, partial curve, poor fit]; that for `CCc1cccc(NC(=O)Cn2c(=O)n3nc(-c4cccc(F)c4)nc3c3ccccc32)c1` was 7.94 µM [rising, partial curve, poor fit]; that for `COc1ccc(NC(=O)CSc2nnc3ccc(-c4cccnc4)nn23)c(OC)c1` was 1.3 µM [falling, full curve, poor fit]. On the same count and under the same terms, the value for `CCN(CC(=O)Nc1ccc2c(c1)OCCO2)C(=O)c1cccc(OCC(C)C)c1` was 10 µM [falling, single point]; that for `COc1ccc2[nH]c3c(c2c1)CCN1C(=O)N([C@@H](C)C(=O)NCCc2ccc(F)cc2)C(=O)[C@]31C` was 10 µM [falling, partial curve, poor fit]; that for `O=C(CCc1nc2ccccc2c(=O)[nH]1)NNC(=O)COc1cccc(F)c1` was 5.8 µM [rising, partial curve, poor fit]. `CNC(=S)N(CCc1ccc(OC)c(OC)c1)C1CC(=O)N(c2ccccc2)C1=O` (stereo not given): under setting [1], the concentration at half-maximal activity (AC50) is 35.5 µM [falling, single point].

In the case of `CCCN(Cc1cc2cc(C)ccc2[nH]c1=O)C(=O)c1cccc([N+](=O)[O-])c1`, the AC50 under setting [1] was 5.62 µM [rising, single point].

With `CCCC(CCC)C(=O)NCCN1CCOCC1`, the concentration at half-maximal activity (AC50) by setting is: under setting [1], 2.59 µM [rising, single point]; under setting [2], 2.91 µM [rising, partial curve, poor fit]. For `Cc1ccc(C(=O)N2CCN(CCNC(=O)C(=O)Nc3ccc(Cl)cc3)CC2)cc1`, the concentration at half-maximal activity (AC50) under setting [1] is 0.398 µM [falling, full curve]. Same read-out and setting: the value for `CCOc1ccc(NC(=O)C2CCCN(C(=O)Nc3ccccc3)C2)cc1` (stereo not given) was 11.6 µM [rising, partial curve]; that for `COc1ccc(N2C(=O)CSC23C(=O)N2c4c(cccc43)C(C)=CC2(C)C)cc1` (stereo not given) was 18.4 µM [falling, partial curve, poor fit].

In general, AC50 refers to the midpoint of the concentration-response curve, whichever way the signal moves.
